Test results published in PMC4511971.
No constants are given. Whether binding was seen depends on the method and setting. Some binding calls cover weakened binding; strength is not graded here.

Protein sequences, listed by entry. Tags and fused reporters are not part of them. Residues count along the entry.
UniProt P09038, residues 143-288: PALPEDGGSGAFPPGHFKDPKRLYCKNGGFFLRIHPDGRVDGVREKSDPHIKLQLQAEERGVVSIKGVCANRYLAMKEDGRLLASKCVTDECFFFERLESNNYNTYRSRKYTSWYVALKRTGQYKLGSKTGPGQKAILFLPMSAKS
UniProt P11362, residues 22-376: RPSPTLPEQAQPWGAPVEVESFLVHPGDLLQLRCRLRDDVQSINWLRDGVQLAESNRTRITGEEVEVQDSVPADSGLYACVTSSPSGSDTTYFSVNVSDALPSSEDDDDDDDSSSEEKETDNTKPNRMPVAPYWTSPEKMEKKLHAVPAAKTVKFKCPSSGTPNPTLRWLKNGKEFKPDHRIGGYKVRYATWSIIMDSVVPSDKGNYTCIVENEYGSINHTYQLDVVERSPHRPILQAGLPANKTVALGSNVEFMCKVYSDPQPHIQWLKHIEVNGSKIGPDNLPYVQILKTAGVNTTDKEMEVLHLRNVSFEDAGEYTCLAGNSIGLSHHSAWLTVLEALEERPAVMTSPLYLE

Target: FGF2 (UniProt P09038)
Assay: ELISA; 5 ug/ml heparin coated on a GAG-binding plate as substrate to hold FGF2 (200 ng/ml in PBS, 2 h, 37 °C), blocked with 0.5 % fish gelatin; FGFR-Fc (500 ng/ml) pre-complexed in PBS with increasing amounts of IMB-R1 antiserum (on ice, 2 h) or without it, applied for 1.5 h; bound FGFR-Fc detected with HRP goat anti-human IgG-Fc; both purified

With “Recombinant human FGFR1c-Fc (FGFR1 IIIc isoform) (from UniProt P11362 22-376) (Fc fusion)” as the substance, how does the binding read?
Its binding is “binds”.
